Experimental data as given in patent US20260266848A1, “COMPOSITIONS AND METHODS FOR DIAGNOSING AND TREATING DYSTONIA” (Duke University, priority 2023, published 2026).

B1: NEK9 (protein, UniProt Q8TD19 2-979, looked up)
Serine/threonine-protein …: SVLGEYERHCDSINSDFGSESGGCGDSSPGPSASQGPRAGGGAAEQEELHYIPIRVLGRGAFGEATLYRRTEDDSLVVWKEVDLTRLSEKERRDALNEIVILALLQHDNIIAYYNHFMDNTTLLIELEYCNGGNLYDKILRQKDKLFEEEMVVWYLFQIVSAVSCIHKAGILHRDIKTLNIFLTKANLIKLGDYGLAKKLNSEYSMAETLVGTPYYMSPELCQGVKYNFKSDIWAVGCVIFELLTLKRTFDATNPLNLCVKIVQGIRAMEVDSSQYSLELIQMVHSCLDQDPEQRPTADELLDRPLLRKRRREMEEKVTLLNAPTKRPRSSTVTEAPIAVVTSRTSEVYVWGGGKSTPQKLDVIKSGCSARQVCAGNTHFAVVTVEKELYTWVNMQGGTKLHGQLGHGDKASYRQPKHVEKLQGKAIRQVSCGDDFTVCVTDEGQLYAFGSDYYGCMGVDKVAGPEVLEPMQLNFFLSNPVEQVSCGDNHVVVLTRNKEVYSWGCGEYGRLGLDSEEDYYTPQKVDVPKALIIVAVQCGCDGTFLLTQSGKVLACGLNEFNKLGLNQCMSGIINHEAYHEVPYTTSFTLAKQLSFYKIRTIAPGKTHTAAIDERGRLLTFGCNKCGQLGVGNYKKRLGINLLGGPLGGKQVIRVSCGDEFTIAATDDNHIFAWGNGGNGRLAMTPTERPHGSDICTSWPRPIFGSLHHVPDLSCRGWHTILIVEKVLNSKTIRSNSSGLSIGTVFQSSSPGGGGGGGGGEEEDSQQESETPDPSGGFRGTMEADRGMEGLISPTEAMGNSNGASSSCPGWLRKELENAEFIPMPDSPSPLSAAFSESEKDTLPYEELQGLKVASEAPLEHKPQVEASSPRLNPAVTCAGKGTPLTPPACACSSLQVEVERLQGLVLKCLAEQQKLQQENLQIFTQLQKLNKKLEGGQQVGMHSKGTQTAKEEMEMDPKPDLDSDSWCLLGTDSCRPSL
B2: MARS1 (protein, UniProt P56192 1-900, looked up)
Methionine--tRNA ligase, …: MRLFVSDGVPGCLPVLAAAGRARGRAEVLISTVGPEDCVVPFLTRPKVPVLQLDSGNYLFSTSAICRYFFLLSGWEQDDLTNQWLEWEATELQPALSAALYYLVVQGKKGEDVLGSVRRALTHIDHSLSRQNCPFLAGETESLADIVLWGALYPLLQDPAYLPEELSALHSWFQTLSTQEPCQRAAETVLKQQGVLALRPYLQKQPQPSPAEGRAVTNEPEEEELATLSEEEIAMAVTAWEKGLESLPPLRPQQNPVLPVAGERNVLITSALPYVNNVPHLGNIIGCVLSADVFARYSRLRQWNTLYLCGTDEYGTATETKALEEGLTPQEICDKYHIIHADIYRWFNISFDIFGRTTTPQQTKITQDIFQQLLKRGFVLQDTVEQLRCEHCARFLADRFVEGVCPFCGYEEARGDQCDKCGKLINAVELKKPQCKVCRSCPVVQSSQHLFLDLPKLEKRLEEWLGRTLPGSDWTPNAQFITRSWLRDGLKPRCITRDLKWGTPVPLEGFEDKVFYVWFDATIGYLSITANYTDQWERWWKNPEQVDLYQFMAKDNVPFHSLVFPCSALGAEDNYTLVSHLIATEYLNYEDGKFSKSRGVGVFGDMAQDTGIPADIWRFYLLYIRPEGQDSAFSWTDLLLKNNSELLNNLGNFINRAGMFVSKFFGGYVPEMVLTPDDQRLLAHVTLELQHYHQLLEKVRIRDALRSILTISRHGNQYIQVNEPWKRIKGSEADRQRAGTVTGLAVNIAALLSVMLQPYMPTVSATIQAQLQLPPPACSILLTNFLCTLPAGHQIGTVSPLFQKLENDQIESLRQRFGGGQAKTSPKPAVVETVTTAKPQQIQALMDEVTKQGNIVRELKAQKADKNEVAAEVAKLLDLKKQLAVAEGKPPEAPKGKKKK
B3: SLPI (protein, UniProt P03973 26-132, looked up)
Antileukoproteinase: SGKSFKAGVCPPKKSAQCLRYKKPECQSDWQCPGKKRCCPDTCGIKCLDPVDTPNPTRRKPGKCPVTYGQCLMLNPPNFCEMDGQCKRDLKCCMGMCGKSCVSPVKA
B4: DDOST (protein, UniProt P39656 43-456, looked up)
Dolichyl-diphosphooligosacchar …: SGPRTLVLLDNLNVRETHSLFFRSLKDRGFELTFKTADDPSLSLIKYGEFLYDNLIIFSPSVEDFGGNINVETISAFIDGGGSVLVAASSDIGDPLRELGSECGIEFDEEKTAVIDHHNYDISDLGQHTLIVADTENLLKAPTIVGKSSLNPILFRGVGMVADPDNPLVLDILTGSSTSYSFFPDKPITQYPHAVGKNTLLIAGLQARNNARVIFSGSLDFFSDSFFNSAVQKAAPGSQRYSQTGNYELAVALSRWVFKEEGVLRVGPVSHHRVGETAPPNAYTVTDLVEYSIVIQQLSNGKWVPFDGDDIQLEFVRIDPFVRTFLKKKGGKYSVQFKLPDVYGVFQFKVDYNRLGYTHLYSSTQVSVRPLQHTQYERFIPSAYPYYASAFSMMLGLFIFSIVFLHMKEKEKSD
B5: Zyx (protein, UniProt Q62523 2-564, looked up)
Zyxin: AAPRPPPAISVSVSAPAFYAPQKKFAPVVAPKPKVNPFRPGDSEPPVAAGAQRAQMGRVGEIPPPPPEDFPLPPPPLIGEGDDSEGALGGAFPPPPPPMIEEPFPPAPLEEDIFPSPPPPLEEEGGPEAPTQLPPQPREKVCSIDLEIDSLSSLLDDMTKNDPFKARVSSGYVPPPVATPFVPKPSTKPAPGGTAPLPPWKTPSSSQPPPQPQAKPQVQLHVQPQAKPHVQPQPVSSANTQPRGPLSQAPTPAPKFAPVAPKFTPVVSKFSPGAPSGPGPQPNQKMVPPDAPSSVSTGSPQPPSFTYAQQKEKPLVQEKQHPQPPPAQNQNQVRSPGGPGPLTLKEVEELEQLTQQLMQDMEHPQRQSVAVNESCGKCNQPLARAQPAVRALGQLFHITCFTCHQCQQQLQGQQFYSLEGAPYCEGCYTDTLEKCNTCGQPITDRMLRATGKAYHPQCFTCVVCACPLEGTSFIVDQANQPHCVPDYHKQYAPRCSVCSEPIMPEPGRDETVRVVALDKNFHMKCYKCEDCGKPLSIEADDNGCFPLDGHVLCRKCHSARAQT
B6: Hnrnpc (protein, UniProt Q9Z204 2-313, looked up)
Heterogeneous nuclear …: ASNVTNKTDPRSMNSRVFIGNLNTLVVKKSDVEAIFSKYGKIVGCSVHKGFAFVQYVNERNARAAVAGEDGRMIAGQVLDINLAAEPKVNRGKAGVKRSAAEMYGSVPEHPSPSPLLSSSFDLDYDFQRDYYDRMYSYPARVPPPPPIARAVVPSKRQRVSGNTSRRGKSGFNSKSGQRGSSSKSGKLKGDDLQAIKKELTQIKQKVDSLLESLEKIEKEQSKQADLSFSSPVEMKNEKSEEEQSSASVKKDETNVKMESEAGADDSAEEGDLLDDDDNEDRGDDQLELKDDEKEPEEGEDDRDSANGEDDS
B7: Slc2a1 (protein, UniProt P17809 1-492, looked up)
Solute carrier family 2, …: MDPSSKKVTGRLMLAVGGAVLGSLQFGYNTGVINAPQKVIEEFYNQTWNHRYGEPIPSTTLTTLWSLSVAIFSVGGMIGSFSVGLFVNRFGRRNSMLMMNLLAFVAAVLMGFSKLGKSFEMLILGRFIIGVYCGLTTGFVPMYVGEVSPTALRGALGTLHQLGIVVGILIAQVFGLDSIMGNADLWPLLLSVIFIPALLQCILLPFCPESPRFLLINRNEENRAKSVLKKLRGTADVTRDLQEMKEEGRQMMREKKVTILELFRSPAYRQPILIAVVLQLSQQLSGINAVFYYSTSIFEKAGVQQPVYATIGSGIVNTAFTVVSLFVVERAGRRTLHLIGLAGMAGCAVLMTIALALLERLPWMSYLSIVAIFGFVAFFEVGPGPIPWFIVAELFSQGPRPAAIAVAGFSNWTSNFIVGMCFQYVEQLCGPYVFIIFTVLLVLFFIFTYFKVPETKGRTFDEIASGFRQGGASQSDKTPEELFHPLGADSQV
B8: Pitpnb (protein, UniProt P53811 1-271, looked up)
Phosphatidylinositol transfer …: MVLIKEFRVVLPCSVQEYQVGQLYSVAEASKNETGGGEGIEVLKNEPYENDGEKGQYTHKIYHLKSKVPAFVRMIAPEGSLVFHEKAWNAYPYCRTIVTNEYMKDDFFIKIETWHKPDLGTLENVHGLDPNTWKTVEIVHIDIADRSQVEPADYKADEDPALFHSVKTKRGPLGPNWKKELANTPDCPRMCAYKLVTIKFKWWGLQSKVENFIQKQEKRIFTNLHRQLFCWIDKWIDLTMEDIRRMEDETQKELETMRKKGSVRGTSAADA
B9: Ano6 (protein, UniProt Q4KMQ2 1-910, looked up)
Anoctamin-6: MKKMSRNVLLQMEEEEDDDDGDIVLENLGQTIVPDLGSLESQHDFRTPEFEEFNGKPDSLFFNDGQRRIDFVLVYEDESRKETNKKGTNEKQRRKRQAYESNLICHGLQLEATRSVLDDKLVFVKVHAPWEVLCTYAEIMHIKLPLKPNDLKNRSSAFGTLNWFTKVLSVDESIIKPEQEFFTAPFEKNRMNDFYIVDRDAFFNPATRSRIVYFILSRVKYQVINNVSKFGINRLVNSGIYKAAFPLHDCKFRRQSEDPSCPNERYLLYREWAHPRSIYKKQPLDLIRKYYGEKIGIYFAWLGYYTQMLLLAAVVGVACFLYGYLNQDNCTWSKEVCHPDIGGKIIMCPQCDRLCPFWKLNITCESSKKLCIFDSFGTLVFAVFMGVWVTLFLEFWKRRQAELEYEWDTVELQQEEQARPEYEARCTHVVINEITQEEERIPFTAWGKCIRITLCASAVFFWILLIIASVIGIIVYRLSVFIVFSAKLPKNINGTDPIQKYLTPQTATSITASIISFIIIMILNTIYEKVAIMITNFELPRTQTDYENSLTMKMFLFQFVNYYSSCFYIAFFKGKFVGYPGDPVYWLGKYRNEECDPGGCLLELTTQLTIIMGGKAIWNNIQEVLLPWIMNLIGRFHRVSGSEKITPRWEQDYHLQPMGKLGLFYEYLEMIIQFGFVTLFVASFPLAPLLALVNNILEIRVDAWKLTTQFRRLVPEKAQDIGAWQPIMQGIAILAVVTNAMIIAFTSDMIPRLVYYWSFSVPPYGDHTSYTMEGYINNTLSIFKVADFKNKSKGNPYSDLGNHTTCRYRDFRYPPGHPQEYKHNIYYWHVIAAKLAFIIVMEHVIYSVKFFISYAIPDVSKRTKSKIQREKYLTQKLLHENHLKDMTKNMGVIAERMIEAVDNNLRPKSE

Columns and labels:
[1] = system: DYT1 patient plasma derived EVs; experiment: Plasma-derived EV proteomics (ExoQuick ULTRA, DIA LC/MS/MS), DYT1 vs Healthy Controls; set-up: species or system human; details: for Mean DYT1 / Mean HC: protein abundance; for Mean DYT1: DYT1 patients; for Mean HC: healthy controls (HC)
How it was run: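 Plasma EVs enriched with ExoQuick ULTRA; 500 ng per sample run on EvoSep One UPLC (SPD30 gradient, ~5–30% acetonitrile/0.1% formic acid, 50 C) coupled to Orbitrap Astral. DIA mode: full MS r=240,000, m/z 380-980; 4 m/z fixed windows, HCD 27%.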

[2] = system: DYT-TOR1A MEF EVs; experiment: Quantitative LC-MS/MS proteomics of EVs from drug-treated DYT-TOR1A MEF cultures (ritonavir, salubrinal); type: cell-based, mouse; details: for RTV Corrective Direction: Ritonavir; for RTV Corrective Direction / Sal Corrective Direction: was treatment in MEF's in the direction of WT-like?; for Sal Corrective Direction: Salubrinal; for DYT1/DYT1 + Sal: Directionality of protein change in MEFs EV dataset in DYT1 derived MEFs treated with salubrinal; for DYT1/DYT1 + RTV: Directionality of protein change in MEFs EV dataset in DYT1 derived MEFs treated with Ritonavir

Row | Molecule | Mean DYT1 [1] | Mean HC [1] | RTV Corrective Direction [2] | Sal Corrective Direction [2] | further results
1 | B1 | 11.764 | 12.35 |  |  | 
2 | B2 | 4.049 | 5.24 |  |  | Directionality ([1]; Hs. Plasma EVs (DYT1/WT)): DOWN; Log2_FC ([1]; Hs. Plasma EVs (DYT1/WT), protein level, human patient derived EVs by genotype): -1.187; Hs. Plasma EVs (DYT1/WT) ([1]; directionality of protein change, human plasma derived EVs, DYT1 vs WT(HC)): DOWN
3 | B3 | 5.326 | 6.42 |  |  | 
4 | B4 | 3.994 | 4.66 |  |  | 
5 | B5 |  |  | Yes | Yes | 
6 | B6 |  |  | Yes | Yes | 
7 | B7 |  |  | Yes | No | DYT1/DYT1 + Sal [2]: DOWN
8 | B8 |  |  | No | No | DYT1/DYT1 + RTV [2]: DOWN; DYT1/DYT1 + Sal [2]: DOWN
9 | B9 |  |  | No | Yes | DYT1/DYT1 + RTV [2]: DOWN
